In the supplement of paper PMC8728848:
This is one part of the list.

Key:
Experiment in all cases: glycan array binding signal (z-score within array); higher = stronger binding
Settings in all cases: glycan notation: IUPAC condensed, linker removed
[1] = target: Fuc(a1-3)[Gal(b1-4)]GlcNAc(b1-2)Man(a1-3)[Fuc(a1-3)[Gal(b1-4)]GlcNAc(b1-2)Man(a1-6)]Man(b1-4)GlcNAc(b1-4)[Fuc(a1-6)]GlcNAc
How it was run: (§1)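 Columns mapping to the same glycan were averaged after glycan names were converted to IUPAC-condensed notation. The data come from 3228 arrays in the Consortium for Functional Glycomics database, limited to those with an available protein sequence. Binding is reported as a within-array Z-score averaged across arrays of one protein sequence and across linkers.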

[2] = target: Fuc(a1-3)[Gal(b1-4)]GlcNAc(b1-3)Gal(b1-3)[Fuc(a1-4)]GlcNAc
How it was run: as §1

[3] = target: Fuc(a1-3)[Gal(b1-4)]GlcNAc(b1-3)GalNAc
How it was run: as §1

[4] = target: Fuc(a1-3)[Gal(b1-4)]GlcNAc(b1-4)Gal(b1-4)[Fuc(a1-3)]GlcNAc
How it was run: as §1

[5] = target: Fuc(a1-3)[Gal(b1-4)]GlcNAc(b1-4)Gal(b1-4)[Fuc(a1-3)]GlcNAc(b1-4)Gal(b1-4)[Fuc(a1-3)]GlcNAc
How it was run: as §1

[6] = target: Fuc(a1-3)[Gal(b1-4)]GlcNAc(b1-6)GalNAc
How it was run: as §1

[7] = target: Fuc(a1-3)[Gal(b1-4)]GlcNAc(b1-6)[Gal(b1-3)GlcNAc(b1-3)]Gal(b1-4)Glc
How it was run: as §1

[8] = target: Fuc(a1-3)[Gal(b1-4)]GlcNAc(b1-6)[Neu5Ac(a2-3)Gal(b1-3)]GalNAc
How it was run: as §1

[9] = target: Fuc(a1-3)[Gal(b1-4)]GlcNAc6S
How it was run: as §1

[10] = target: Fuc(a1-3)[Gal3S(b1-4)]GlcNAc
How it was run: as §1

[11] = target: Fuc(a1-3)[Gal3S(b1-4)]GlcNAc6S
How it was run: as §1

[12] = target: Fuc(a1-3)[GalNAc(b1-4)]GlcNAc
How it was run: as §1

Fuc(a1-4)GlcNAc = target: Fuc(a1-4)GlcNAc
How it was run: as §1

Fuc(b1-3)GlcNAc = target: Fuc(b1-3)GlcNAc
How it was run: as §1

Gal(a1-2)Gal = target: Gal(a1-2)Gal
How it was run: as §1

Gal(a1-3)Gal = target: Gal(a1-3)Gal
How it was run: as §1

Gal(a1-3)Gal(b1-3)GlcNAc = target: Gal(a1-3)Gal(b1-3)GlcNAc
How it was run: as §1

[13] = target: Gal(a1-3)Gal(b1-3)GlcNAc(b1-2)Man(a1-3)[Gal(a1-3)Gal(b1-3)GlcNAc(b1-2)Man(a1-6)]Man(b1-4)GlcNAc(b1-4)GlcNAc
How it was run: as §1

[14] = target: Gal(a1-3)Gal(b1-3)GlcNAc(b1-3)GalNAc
How it was run: as §1

[15] = target: Gal(a1-3)Gal(b1-3)[Fuc(a1-4)]GlcNAc(b1-2)Man(a1-3)[Gal(a1-3)Gal(b1-3)[Fuc(a1-4)]GlcNAc(b1-2)Man(a1-6)]Man(b1-4)GlcNAc(b1-4)GlcNAc
How it was run: as §1

Gal(a1-3)Gal(b1-4)Glc = target: Gal(a1-3)Gal(b1-4)Glc
How it was run: as §1

Gal(a1-3)Gal(b1-4)GlcNAc = target: Gal(a1-3)Gal(b1-4)GlcNAc
How it was run: as §1

[16] = target: Gal(a1-3)Gal(b1-4)GlcNAc(b1-3)GalNAc
How it was run: as §1

[17] = target: Gal(a1-3)Gal(b1-4)[Fuc(a1-3)]GlcNAc
How it was run: as §1

[18] = target: Gal(a1-3)Gal(b1-4)[Fuc(a1-3)]GlcNAc(b1-2)Man(a1-3)[Gal(a1-3)Gal(b1-4)[Fuc(a1-3)]GlcNAc(b1-2)Man(a1-6)]Man(b1-4)GlcNAc(b1-4)GlcNAc
How it was run: as §1

Gal(a1-3)GalNAc = target: Gal(a1-3)GalNAc
How it was run: as §1

[19] = target: Gal(a1-3)[Gal(a1-4)]Gal(b1-4)GlcNAc
How it was run: as §1

[20] = target: Gal(a1-4)Gal(b1-3)GlcNAc(b1-2)Man(a1-3)[Gal(a1-4)Gal(b1-3)GlcNAc(b1-2)Man(a1-6)]Man(b1-4)GlcNAc(b1-4)GlcNAc
How it was run: as §1

Gal(a1-4)Gal(b1-4)Glc = target: Gal(a1-4)Gal(b1-4)Glc
How it was run: as §1

Gal(a1-4)Gal(b1-4)GlcNAc = target: Gal(a1-4)Gal(b1-4)GlcNAc
How it was run: as §1

[21] = target: Gal(a1-4)Gal(b1-4)GlcNAc(b1-2)Man(a1-3)[Gal(a1-4)Gal(b1-4)GlcNAc(b1-2)Man(a1-6)]Man(b1-4)GlcNAc(b1-4)GlcNAc
How it was run: as §1

[22] = target: Gal(a1-4)Gal(b1-4)GlcNAc(b1-3)Gal(b1-4)Glc
How it was run: as §1

Gal(a1-4)GlcNAc = target: Gal(a1-4)GlcNAc
How it was run: as §1

Gal(a1-6)Glc = target: Gal(a1-6)Glc
How it was run: as §1

Gal(b1-2)Gal = target: Gal(b1-2)Gal
How it was run: as §1

Gal(b1-3)Gal = target: Gal(b1-3)Gal
How it was run: as §1

Gal(b1-3)Gal(b1-4)GlcNAc = target: Gal(b1-3)Gal(b1-4)GlcNAc
How it was run: as §1

[23] = target: Gal(b1-3)Gal(b1-4)GlcNAc(b1-2)Man(a1-3)[Gal(b1-3)Gal(b1-4)GlcNAc(b1-2)Man(a1-6)]Man(b1-4)GlcNAc(b1-4)GlcNAc
How it was run: as §1

Gal(b1-3)GalNAc = target: Gal(b1-3)GalNAc
How it was run: as §1

[24] = target: Gal(b1-3)GalNAc(a1-3)[Fuc(a1-2)]Gal(b1-4)Glc
How it was run: as §1

[25] = target: Gal(b1-3)GalNAc(a1-3)[Fuc(a1-2)]Gal(b1-4)GlcNAc
How it was run: as §1

[26] = target: Gal(b1-3)GalNAc(b1-3)Gal(a1-4)Gal(b1-4)Glc
How it was run: as §1

[27] = target: Gal(b1-3)GalNAc(b1-4)Gal(b1-4)Glc
How it was run: as §1

[28] = target: Gal(b1-3)GalNAc(b1-4)[Neu5Ac(a2-3)]Gal(b1-4)Glc
How it was run: as §1

Gal(b1-3)GlcNAc = target: Gal(b1-3)GlcNAc
How it was run: as §1

B1: Flo11 (Saccharomyces cerevisiae), P08640 (protein)
chain: MQRPFLLAYLVLSLLFNSALGFPTALVPRGSSEGTSCNSIVNGCPNLDFNWHMDQQNIMQYTLDVTSVSWVQDNTYQITIHVKGKENIDLKYLWSLKIIGVTGPKGTVQLYGYNENTYLIDNPTDFTATFEVYATQDVNSCQVWMPNFQIQFEYLQGSAAQYASSWQWGTTSFDLSTGCNNYDNQGHSQTDFPGFYWNIDCDNNCGGTKSSTTTSSTSESSTTTSSTSESSTTTSSTSESSTTTSSTSESSTSSSTTAPATPTTTSCTKEKPTPPTTTSCTKEKPTPPHHDTTPCTKKKTTTSKTCTKKTTTPVPTPSSSTTESSSAPVPTPSSSTTESSSAPVTSSTTESSSAPVPTPSSSTTESSSAPVTSSTTESSSAPVTSSTTESSSAPVPTPSSSTTESSSAPVTSSTTESSSAPVTSSTTESSSAPVTSSTTESSSAPVTSSTTESSSAPVPTPSSSTTESSSAPVTSSTTESSSAPVPTPSSSTTESSSAPVTSSTTESSSAPVPTPSSSTTESSSAPAPTPSSSTTESSSAPVTSSTTESSSAPVPTPSSSTTESSSTPVTSSTTESSSAPVPTPSSSTTESSSAPVPTPSSSTTESSSAPAPTPSSSTTESSSAPVTSSTTESSSAPVPTPSSSTTESSSAPVPTPSSSTTESSSAPVPTPSSSTTESSSAPVTSSTTESSSAPVTSSTTESSSAPVPTPSSSTTESSSAPVPTPSSSTTESSSAPVPTPSSSTTESSSAPVTSSTTESSSAPVPTPSSSTTESSSAPVPTPSSSTTESSSAPVPTPSSSTTESSVAPVPTPSSSSNITSSAPSSTPFSSSTESSSVPVPTPSSSTTESSSAPVSSSTTESSVAPVPTPSSSSNITSSAPSSIPFSSTTESFSTGTTVTPSSSKYPGSQTETSVSSTTETTIVPTKTTTSVTTPSTTTITTTVCSTGTNSAGETTSGCSPKTVTTTVPTTTTTSVTTSSTTTITTTVCSTGTNSAGETTSGCSPKTITTTVPCSTSPSETASESTTTSPTTPVTTVVSTTVVTTEYSTSTKPGGEITTTFVTKNIPTTYLTTIAPTPSVTTVTNFTPTTITTTVCSTGTNSAGETTSGCSPKTVTTTVPCSTGTGEYTTEATTLVTTAVTTTVVTTESSTGTNSAGKTTTGYTTKSVPTTYVTTLAPSAPVTPATNAVPTTITTTECSAATNAAGETTSVCSAKTIVSSASAGENTAPSATTPVTTAIPTTVITTESSVGTNSAGETTTGYTTKSIPTTYITTLIPGSNGAKNYETVATATNPISIKTTSQLATTASASSVAPVVTSPSLTGPLQSASGSAVATYSVPSISSTYQGAANIKVLGNFMWLLLALPVVF
- glycan array binding signal (z-score) [1]: -1.2
- glycan array binding signal (z-score) [2]: -0.603
- glycan array binding signal (z-score) [3]: -0.504
- glycan array binding signal (z-score) [4]: 0.956
- glycan array binding signal (z-score) [5]: -1.32
- glycan array binding signal (z-score) [6]: 0.56
- glycan array binding signal (z-score) [7]: -1.18
- glycan array binding signal (z-score) [8]: 0.687
- glycan array binding signal (z-score) [9]: -0.514
- glycan array binding signal (z-score) [10]: 0.019
- glycan array binding signal (z-score) [11]: -0.061
- glycan array binding signal (z-score) [12]: 1.61
- glycan array binding signal (z-score) (Fuc(a1-4)GlcNAc): 0.442
- glycan array binding signal (z-score) (Fuc(b1-3)GlcNAc): -0.342
- glycan array binding signal (z-score) (Gal(a1-2)Gal): -0.278
- glycan array binding signal (z-score) (Gal(a1-3)Gal): -0.443
- glycan array binding signal (z-score) (Gal(a1-3)Gal(b1-3)GlcNAc): 0.237
- glycan array binding signal (z-score) [13]: 0.723
- glycan array binding signal (z-score) [14]: -0.408
- glycan array binding signal (z-score) [15]: 0.122
- glycan array binding signal (z-score) (Gal(a1-3)Gal(b1-4)Glc): -0.454
- glycan array binding signal (z-score) (Gal(a1-3)Gal(b1-4)GlcNAc): -0.491
- glycan array binding signal (z-score) [16]: -0.434
- glycan array binding signal (z-score) [17]: -0.437
- glycan array binding signal (z-score) [18]: 1.4
- glycan array binding signal (z-score) (Gal(a1-3)GalNAc): -0.545
- glycan array binding signal (z-score) [19]: 0.144
- glycan array binding signal (z-score) [20]: -0.042
- glycan array binding signal (z-score) (Gal(a1-4)Gal(b1-4)Glc): -0.684
- glycan array binding signal (z-score) (Gal(a1-4)Gal(b1-4)GlcNAc): -0.103
- glycan array binding signal (z-score) [21]: 0.617
- glycan array binding signal (z-score) [22]: 0.408
- glycan array binding signal (z-score) (Gal(a1-4)GlcNAc): -0.72
- glycan array binding signal (z-score) (Gal(a1-6)Glc): -0.453
- glycan array binding signal (z-score) (Gal(b1-2)Gal): -1.32
- glycan array binding signal (z-score) (Gal(b1-3)Gal): -0.531
- glycan array binding signal (z-score) (Gal(b1-3)Gal(b1-4)GlcNAc): 0.164
- glycan array binding signal (z-score) [23]: 0.049
- glycan array binding signal (z-score) (Gal(b1-3)GalNAc): 0.012
- glycan array binding signal (z-score) [24]: 0.782
- glycan array binding signal (z-score) [25]: -0.07
- glycan array binding signal (z-score) [26]: -0.275
- glycan array binding signal (z-score) [27]: -0.689
- glycan array binding signal (z-score) [28]: -0.366
- glycan array binding signal (z-score) (Gal(b1-3)GlcNAc): -1.14
